Experimental findings from publication PMC12040169 (PLOS Biology, 2025) are described below.

The list shows a part of the results.

The subject of this test is T1, CTL2-GFP (C. trachomatis L2/434/Bu, GFP-expressing).
T1 construct: L2/434/Bu, GFP-expressing
Details: species or system HeLa; Intracellular C. trachomatis growth in HeLa cells, bulk GFP fluorescence relative to DMSO. The conditions noted are these: bulk GFP, single well; 28.5 h, 10 µM; inhibitor.
Turning to `O=C(NCC1(c2ccccc2F)CCCC1)c1cc[nH]c(=O)c1` [CBK281378], the “% of control remaining” value is reported as 103.949%.

With `O=S(=O)(NCCSCc1ccco1)c1ccc(Cl)cc1` [CBK232206], the “% of control remaining” value is given as 132.395%.

Consider `O=[N+]([O-])c1ccc(CN2CCC(Oc3nccnc3OCc3ccc(Cl)c(Cl)c3)CC2)cc1` [CBK083107T], for which the “% of control remaining” value stood at 82.411%.

In the case of `CCNS(=O)(=O)c1ccc2c(c1)N(Cc1cccnc1C)CC2` [CBK306020], the “% of control remaining” value came to 145.009%.

In the case of `COc1ccc(-c2c(-c3ccc(O)cc3O)n[nH]c2C)cc1OC` [CBK265552], the “% of control remaining” value was 113.721%.

For the compound `Cc1ccc2oc(-c3cc(NC(=S)NC(=O)c4ccc([N+](=O)[O-])cc4)ccc3O)nc2c1` [CBK263923], the “% of control remaining” value is on record as 135.825%.

Turning to `Cc1nn(C)cc1CN(Cc1ccccc1F)CC1CCCO1` (stereo not shown) [CBK283014], the “% of control remaining” value stood at 83.0405%.

Turning to `CC(=O)OC1CCn2c1nc1ccccc12` (stereo not shown) [CBK113621], the “% of control remaining” value worked out at 101.16%.

As for `CCCC(C(=O)NCCN(C)C1CCCCC1)n1nc(C)cc1C` (stereo not shown) [CBK282039], the “% of control remaining” value was 172.934%.

Consider `CC1CC(C)CN(C(=O)Cn2c(-c3nonc3N)nc3ccccc32)C1` (stereo not shown) [CBK264694], for which the “% of control remaining” value worked out at 127.628%.

For the compound `CCCn1ccc(CNCC(c2ccnn2C)C(C)C)c1` (stereo not shown) [CBK304861], the “% of control remaining” value stood at 119.478%.

With `O=C(Oc1cccc(/C=N/NC(=O)c2ccccn2)c1)c1cccc(Br)c1` [CBK262115], the “% of control remaining” value worked out at 92.5457%.

`Cc1cc(N2CCCN(C(=O)CCCOc3ccccc3)CC2)ccn1` [CBK307052]: the “% of control remaining” value amounted to 122.667%.

In the case of `CCCN1CCCN(c2ccc(-n3ccc(C)n3)nn2)CC1` [CBK306304], the “% of control remaining” value was 113.852%.

In the case of `O=C(C1CCCC1)N1CCCCC1c1n[nH]cc1-c1ccncc1` (stereo not shown) [CBK283427], the “% of control remaining” value came to 139.764%.

For the compound `COc1cccc(/C=C2/NC(=O)N(Cc3ccc(F)cc3)C2=O)c1OCc1cccc(C(=O)O)c1` [CBK265282], the “% of control remaining” value is listed as 115.895%.

As to `COc1ccc(N2CCN(c3cc(-c4cccc(NC(C)=O)c4)ncn3)CC2)cc1OC` [CBK091029], the “% of control remaining” value is given as 148.966%.

For `N#CC(CC(=O)O)C(Cc1ccccc1)c1ccccc1` (stereo not shown) [CBK286837], the “% of control remaining” value is listed as 107.373%.

Consider `CCNC(=O)Nc1cc2cccnc2nc1-c1ccc(S(C)(=O)=O)cc1` [CBK070706], for which the “% of control remaining” value is on record as 109.243%.

Take `Nc1ccc2c(c1)/C(=C/c1c[nH]c3ncccc13)C(=O)N2` [CBK010155T]: the “% of control remaining” value is recorded as 153.99%.

For `Cc1ccc(O)cc1CC[C@@H]1CC(=O)CC2(C)C1CC[C@]2(O)C(=O)COC(=O)CCC(=O)O` (stereo partly shown) [CBK007270], the “% of control remaining” value stood at 139.352%.

As to `Cc1cc(C(=O)N2C3CCC2CC(O)(c2ccnn2C)C3)sc1C` (stereo not shown) [CBK284518], the “% of control remaining” value came to 90.9358%.
